According to publication PMC4915132, “Structural insights of ZIP4 extracellular domain critical for optimal zinc transport” (Nature Communications, 2016):
No constants are given. Whether binding was seen depends on the method and setting. For some assays here: In cells and extracts the contact can be indirect. Some binding calls cover weakened binding; strength is not graded here. For some assays here: Where a sequence is shown, tags or fusion partners need not be part of it.

B1: full-length human ZIP4, wild type, with C-terminal HA tag (protein, UniProt Q6P5W5-1 23-647)
chain: SPPAGLLSLLTSGQGALDQEALGGLLNTLADRVHCANGPCGKCLSVEDALGLGEPEGSGLPPGPVLEARYVARLSAAAVLYLSNPEGTCEDARAGLWASHADHLLALLESPKALTPGLSWLLQRMQARAAGQTPKMACVDIPQLLEEAVGAGAPGSAGGVLAALLDHVRSGSCFHALPSPQYFVDFVFQQHSSEVPMTLAELSALMQRLGVGREAHSDHSHRHRGASSRDPVPLISSSNSSSVWDTVCLSARDVMAAYGLSEQAGVTPEAWAQLSPALLQQQLSGACTSQSRPPVQDQLSQSERYLYGSLATLLICLCAVFGLLLLTCTGCRGVTHYILQTFLSLAVGAVTGDAVLHLTPKVLGLHTHSEEGLSPQPTWRLLAMLAGLYAFFLFENLFNLLLPRDPEDLEDGPCGHSSHSHGGHSHGVSLQLAPSELRQPKPPHEGSRADLVAEESPELLNPEPRRLSPELRLLPYMITLGDAVHNFADGLAVGAAFASSWKTGLATSLAVFCHELPHELGDFAALLHAGLSVRQALLLNLASALTAFAGLYVALAVGVSEESEAWILAVATGLFLYVALCDMLPAMLKVRDPRPWLLFLLHNVGLLGGWTVLLLLSLYEDDITF
B2: pZIP4-ECD construct truncated at the end of α11 (residues 36-233) (domain or fragment, UniProt L5KLU7 36-233)
chain: SGQGALDRVALGGLLNTLAARVHCTSGPCGKCLSVDDLLALGRPEEPGHLARLSAAAALYLSDPEGTCEDIRAGRWASRADHLLALLEGPKALAPGLSRLLQRIQAQTTGQPSAGEACVDPPQLLREAGVAGAPGSPGPVLATLLEHVGRGSCFHTLPTPQYFVDFVFQQSHGNTPNISVAELAALMQRLGVGGVTET

Tests used:
[1] = molecular target: full-length human ZIP4, wild type, with C-terminal HA tag (human) (UniProt Q6P5W5); test: cross-linking; disulfide through an engineered cysteine; full-length hZIP4-HA transiently expressed in HEK293T cells; 4-20% gradient SDS-PAGE with or without 5% β-mercaptoethanol, western blot with anti-HA
[2] = molecular target: pZIP4-ECD construct truncated at the end of α11 (residues 36-233) (Pteropus alecto) (UniProt L5KLU7); test: SEC; purified protein on a size exclusion column; elution volume compared with standard proteins eluted on the same column; both purified

Binder	binding [1]	binding [2]
B1	binds	–
B2	–	no binding
